# Experimental data published in US20160000851A1, “Bioactive Botanical Compositions and Uses Thereof” (AKZO NOBEL CHEMICALS INTERNATIONAL B.V., priority 2013, published 2016).
# Test system: IL-8
# Experiment: Inhibition of SDS-induced IL-8 release in human epidermal keratinocytes (ELISA)
# Format: cell-based
# Conditions: Keratinocyte, 16 h, read-out: Estimated IC50 for inhibition of SDS-induced IL-8 release
smiles,measurement,value
C[S+]([O-])c1ccc(-c2nc(-c3ccncc3)c(-c3ccc(F)cc3)[nH]2)cc1 (stereo not shown) [SB203580],IC50,~0.7 µg/mL
